Source: patent US6410558B1, “Fungicides for the control of take-all disease of plants” (Monsanto Technology LLC, priority 1991, dated 2002)
Some entries share one result that the patent states for a list of compounds.

system: Gg; experiment: Field Tests: seed treatment of wheat and barley in previously infested fields; type: in vivo, Gaeumannomyces graminis; settings: mixed with wheat and barley seed at 0.01 to 50 g active ingredient per kg of seed

**Q.** Which “incidence of Gg in previously infested fields compared to check fields seeded with untreated seed” value does the source give for `CCNC(=O)c1c([Si](C)(C)C)csc1Cl` [Example 177, 2-Chloro-N-ethyl-4-(trimethylsilyl)-3-thiophenecarboxamide] here?
**A.** reduce the incidence of Gg

**Q.** Which “incidence of Gg in previously infested fields compared to check fields seeded with untreated seed” value does the source give for `CCNC(=S)c1c(Cl)cccc1[Si](C)(C)C` [Example 76, 2-Chloro-N-ethyl-6-(trimethylsilyl)thiobenzamide] here?
**A.** reduce the incidence of Gg

**Q.** With `COc1ccc(CNC(=O)c2c(Cl)cccc2[Si](C)(C)C)cc1` [Example 136, 2-Chloro-N-[(4-methoxyphenyl)methyl]-6-(trimethylsilyl)benzamide] as the molecule, how does the “incidence of Gg in previously infested fields compared to check fields seeded with untreated seed” value read?
**A.** reduce the incidence of Gg

**Q.** `CCN(SC)C(=O)c1c(Cl)cccc1[Si](C)(C)C` [Example 172, 2-Chloro-N-ethyl-N-(methylthio)-6-(trimethylsilyl)benzamide] was tested. Which “incidence of Gg in previously infested fields compared to check fields seeded with untreated seed” value did it give?
**A.** reduce the incidence of Gg

**Q.** How did the “incidence of Gg in previously infested fields compared to check fields seeded with untreated seed” value turn out when `CCNC(=O)c1c(Cl)cccc1[Si](C)(C)C(C)(C)C` [Example 185, 2-Chloro-6-[(1,1-dimethylethyl)dimethylsilyl]-N-ethylbenzamide] was run?
**A.** reduce the incidence of Gg

**Q.** Which “incidence of Gg in previously infested fields compared to check fields seeded with untreated seed” value does the source give for `CCN(CC)C(=O)c1c(F)ccc(F)c1[Si](C)(C)C` [Example 56, N,N-Diethyl-3,6-difluoro-2-(trimethylsilyl)benzamide] here?
**A.** reduce the incidence of Gg

**Q.** For `CCNC(=O)c1c(Cl)cccc1[Si](C)(C)C(C)C` [Example 180, 2-Chloro-6-[dimethyl(1-methylethyl)silyl]-N-ethylbenzamide], which “incidence of Gg in previously infested fields compared to check fields seeded with untreated seed” value is on record?
**A.** reduce the incidence of Gg

**Q.** With `CCNC(=O)c1c([Si](C)(C)C)ccc(C#N)c1Cl` [Example 229, 2-Chloro-3-cyano-N-ethyl-6-(trimethylsilyl)benzamide] as the molecule, how does the “incidence of Gg in previously infested fields compared to check fields seeded with untreated seed” value read?
**A.** reduce the incidence of Gg

**Q.** How did the “incidence of Gg in previously infested fields compared to check fields seeded with untreated seed” value turn out when `CCNC(=O)c1c(Cl)cccc1[Si](C)(C)C` [Example 45, 2-Chloro-N-ethyl-6-(trimethylsilyl)benzamide] was run?
**A.** reduce the incidence of Gg

**Q.** For `C#CCNC(=O)c1c(I)cccc1[Si](C)(C)C` [Example 208, 2-Iodo-N-2-propynyl-6-(trimethylsilyl)benzamide], which “incidence of Gg in previously infested fields compared to check fields seeded with untreated seed” value is on record?
**A.** reduce the incidence of Gg

**Q.** Which “incidence of Gg in previously infested fields compared to check fields seeded with untreated seed” value does the source give for `CCN(C)C(=O)c1c(Cl)cccc1N(C)C(C)(C)C` [Example 189, 2-Chloro-6-[(1,1-dimethylethyl)methylamino]-N-ethyl-N-methylbenzamide] here?
**A.** reduce the incidence of Gg

**Q.** For `CCNC(=O)c1cc([N+](=O)[O-])ccc1[Si](C)(C)C` [Example 214, N-Ethyl-5-nitro-2-(trimethylsilyl)benzamide], which “incidence of Gg in previously infested fields compared to check fields seeded with untreated seed” value is on record?
**A.** reduce the incidence of Gg

**Q.** With `C[Si](C)(C)c1cccc(Cl)c1NC(=O)C(Cl)(Cl)Cl` [Example 175, 2,2,2-Trichloro-N-[2-chloro-6-(trimethylsilyl)phenyl]acetamide] as the molecule, how does the “incidence of Gg in previously infested fields compared to check fields seeded with untreated seed” value read?
**A.** reduce the incidence of Gg

**Q.** Which “incidence of Gg in previously infested fields compared to check fields seeded with untreated seed” value does the source give for `CCN(CC)C(=O)c1c(Cl)ccc[c]1[Ge]([CH3])([CH3])[CH3]` [Example 119, 2-Chloro-N,N-diethyl-6-(trimethylgermyl)benzamide] here?
**A.** reduce the incidence of Gg

**Q.** For `CCNC(=O)c1c(F)cccc1CC(C)(C)C` [Example 93, 2-(2,2-Dimethylpropyl)-N-ethyl-6-fluorobenzamide], which “incidence of Gg in previously infested fields compared to check fields seeded with untreated seed” value is on record?
**A.** reduce the incidence of Gg

**Q.** How did the “incidence of Gg in previously infested fields compared to check fields seeded with untreated seed” value turn out when `COc1cc(CNC(=O)c2c(Cl)cccc2[Si](C)(C)C)cc(OC)c1OC` [Example 140, 2-Chloro-N-[(3,4,5-trimethoxyphenyl)methyl]-6-(trimethylsilyl)benzamide] was run?
**A.** reduce the incidence of Gg
